Laboratory results from article PMC7249644.
These are yes or no findings as the source states them, for the method shown. In cells and extracts the contact can be indirect. A yes stands for co-enrichment or nearness to the bait. Other partners may have been found. Where a sequence is shown, tags or fusion partners need not be part of it.

Sequences of proteins named here, by UniProt entry; tags and fusion partners are left off.
UniProt P56757: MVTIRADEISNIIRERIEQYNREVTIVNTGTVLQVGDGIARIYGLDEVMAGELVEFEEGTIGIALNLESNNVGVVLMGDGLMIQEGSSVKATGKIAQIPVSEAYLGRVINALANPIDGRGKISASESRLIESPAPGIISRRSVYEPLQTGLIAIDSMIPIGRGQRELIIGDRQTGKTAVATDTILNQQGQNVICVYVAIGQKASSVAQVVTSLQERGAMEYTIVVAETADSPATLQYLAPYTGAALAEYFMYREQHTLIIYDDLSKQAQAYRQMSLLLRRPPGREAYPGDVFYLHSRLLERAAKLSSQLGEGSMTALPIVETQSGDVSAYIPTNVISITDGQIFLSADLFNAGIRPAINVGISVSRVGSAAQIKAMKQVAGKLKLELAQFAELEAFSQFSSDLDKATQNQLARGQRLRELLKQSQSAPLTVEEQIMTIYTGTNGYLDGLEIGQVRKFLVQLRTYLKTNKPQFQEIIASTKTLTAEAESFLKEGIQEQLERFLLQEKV
UniProt P19366: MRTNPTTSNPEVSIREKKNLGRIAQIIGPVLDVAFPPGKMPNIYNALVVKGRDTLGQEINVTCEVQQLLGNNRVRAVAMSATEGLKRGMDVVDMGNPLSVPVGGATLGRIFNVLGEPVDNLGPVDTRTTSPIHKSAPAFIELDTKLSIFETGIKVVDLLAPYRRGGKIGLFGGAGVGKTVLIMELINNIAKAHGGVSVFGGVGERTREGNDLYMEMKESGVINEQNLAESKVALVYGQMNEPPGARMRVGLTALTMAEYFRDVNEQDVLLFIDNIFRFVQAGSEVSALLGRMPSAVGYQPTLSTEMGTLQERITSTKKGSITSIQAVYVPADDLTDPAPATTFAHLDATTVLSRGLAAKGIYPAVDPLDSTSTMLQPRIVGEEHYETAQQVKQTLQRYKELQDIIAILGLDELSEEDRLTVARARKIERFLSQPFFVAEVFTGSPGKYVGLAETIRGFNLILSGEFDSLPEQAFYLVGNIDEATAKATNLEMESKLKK
UniProt P22954: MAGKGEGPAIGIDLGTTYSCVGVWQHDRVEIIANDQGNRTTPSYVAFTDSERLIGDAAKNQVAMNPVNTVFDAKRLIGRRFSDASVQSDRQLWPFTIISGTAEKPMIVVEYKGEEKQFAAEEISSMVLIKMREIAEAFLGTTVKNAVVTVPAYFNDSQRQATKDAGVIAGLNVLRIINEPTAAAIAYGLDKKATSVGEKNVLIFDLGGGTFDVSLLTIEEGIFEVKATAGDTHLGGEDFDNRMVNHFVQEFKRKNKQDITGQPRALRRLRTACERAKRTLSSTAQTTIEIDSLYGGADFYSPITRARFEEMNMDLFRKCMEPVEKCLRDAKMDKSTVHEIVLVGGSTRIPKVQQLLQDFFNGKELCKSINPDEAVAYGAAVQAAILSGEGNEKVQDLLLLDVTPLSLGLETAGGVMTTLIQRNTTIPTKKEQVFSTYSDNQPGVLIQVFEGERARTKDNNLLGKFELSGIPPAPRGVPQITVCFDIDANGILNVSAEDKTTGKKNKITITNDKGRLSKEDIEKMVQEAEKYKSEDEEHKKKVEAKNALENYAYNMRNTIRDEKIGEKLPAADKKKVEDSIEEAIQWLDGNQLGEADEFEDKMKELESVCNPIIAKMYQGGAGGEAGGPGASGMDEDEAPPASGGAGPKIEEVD

T1: OsSHMT (serine hydroxymethyltransferase, LOC_Os03g52840) fused with GFP (rice (Oryza sativa)) (UniProt Q10D68)
T1 sequence: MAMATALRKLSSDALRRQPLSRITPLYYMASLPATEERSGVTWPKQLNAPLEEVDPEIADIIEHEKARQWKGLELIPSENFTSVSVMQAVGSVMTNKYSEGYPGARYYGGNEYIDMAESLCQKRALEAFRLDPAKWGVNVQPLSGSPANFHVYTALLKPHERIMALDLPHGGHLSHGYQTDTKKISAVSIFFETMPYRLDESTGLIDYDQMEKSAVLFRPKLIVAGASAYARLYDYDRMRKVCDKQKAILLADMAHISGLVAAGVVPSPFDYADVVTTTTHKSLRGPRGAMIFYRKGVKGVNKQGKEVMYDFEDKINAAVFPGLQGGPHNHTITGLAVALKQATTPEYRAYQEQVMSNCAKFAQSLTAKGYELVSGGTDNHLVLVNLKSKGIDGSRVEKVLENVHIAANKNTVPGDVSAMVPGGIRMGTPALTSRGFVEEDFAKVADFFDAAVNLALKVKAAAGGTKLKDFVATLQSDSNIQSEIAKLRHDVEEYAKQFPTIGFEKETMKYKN

B1: Mitochondrial substrate carrier family protein (AT5G46800.1), A. thaliana (protein, UniProt Q93XM7 1-300)
chain: MADAWKDLASGTVGGAAQLVVGHPFDTIKVKLQSQPTPAPGQLPRYTGAIDAVKQTVASEGTKGLYKGMGAPLATVAAFNAVLFTVRGQMEGLLRSEAGVPLTISQQFVAGAGAGFAVSFLACPTELIKCRLQAQGALAGASTTSSVVAAVKYGGPMDVARHVLRSEGGARGLFKGLFPTFAREVPGNATMFAAYEAFKRFLAGGSDTSSLGQGSLIMAGGVAGASFWGIVYPTDVVKSVLQVDDYKNPRYTGSMDAFRKILKSEGVKGLYKGFGPAMARSVPANAACFLAYEMTRSSLG
B2: ascorbate peroxidase 1 (AT1G07890.2), A. thaliana (enzyme, UniProt Q05431 1-250)
chain: MTKNYPTVSEDYKKAVEKCRRKLRGLIAEKNCAPIMVRLAWHSAGTFDCQSRTGGPFGTMRFDAEQAHGANSGIHIALRLLDPIREQFPTISFADFHQLAGVVAVEVTGGPDIPFHPGREDKPQPPPEGRLPDATKGCDHLRDVFAKQMGLSDKDIVALSGAHTLGRCHKDRSGFEGAWTSNPLIFDNSYFKELLSGEKEGLLQLVSDKALLDDPVFRPLVEKYAADEDAFFADYAEAHMKLSELGFADA

These molecules were tested against T1, OsSHMT (serine hydroxymethyltransferase, LOC_Os03g52840) fused with GFP (rice (Oryza sativa)) (assay: affinity purification with mass spectrometry; GFP-Trap agarose (Chromotek) incubated with natural leaf proteins of T3 homozygous OsSHMT-GFP transgenic A. thaliana; GFP-only transgenic line as control; co-precipitated proteins identified by LC-MS).
In the case of “ATP synthase subunit alpha (ATCG00120.1), A. thaliana (from UniProt P56757 1-507)”, the binding is reported as “binds”.
With “ATP synthase subunit beta (ATCG00480.1), A. thaliana (from UniProt P19366 1-498)” the binding was “binds”.
With “Heat shock protein 70 (Hsp 70) family protein (AT5G02490.1), A. thaliana (from UniProt P22954 1-653)” the binding was “binds”.
With B1 the binding was “binds”.
With B2 the binding was “binds”.
